Experimental data published in patent publication US20080261312A1, “Methods for matrix cleanup and analysis of drugs and metabolites in biological matrices” (priority 2007, published 2008).

Assay: Quantification of ion-suppression/enhancement (matrix effect), Matuszewski method, post-spiked WAX-aided extracts vs neat solutions, LC-MS/MS

| Compound | Matrix Effect (%) |
| --- | --- |
| CN(C)CCC=C1c2ccccc2CCc2ccccc21 [Amitryptyline] | 96.3 |
| CC(N)Cc1ccccc1 (stereo not drawn) [Amphetamine] | 96 |
| CN(C)CCC=C1c2ccccc2COc2ccccc21 [Doxepin] | 92.3 |
| CNCCC(Oc1ccc(C(F)(F)F)cc1)c1ccccc1 (stereo not drawn) [Fluoxetine] | 93.5 |
| CC(=O)N1CCN(c2ccc(OCC3COC(Cn4ccnc4)(c4ccc(Cl)cc4Cl)O3)cc2)CC1 (stereo not drawn) [Ketoconazole] | 102 |
| Cc1cc(N(C)C)ccc1-c1nc2ccc(-c3nc4ccc(N5CCN(C)CC5)cc4[nH]3)cc2[nH]1 [Methylproamine] | 104.2 |
| CNCCC=C1c2ccccc2COc2ccccc21 [Nordoxepin] | 99.4 |
| CNCCC=C1c2ccccc2CCc2ccccc21 [Nortriptyline] | 95.6 |
| CC(C)NCC(O)COc1cccc2ccccc12 (stereo not drawn) [Propranolol] | 96.5 |
| C=C[C@H]1C[N@@]2CC[C@H]1C[C@@H]2[C@@H](O)c1ccnc2ccc(OC)cc12 [Quinidine] | 95.4 |
| C[C@]12CC[C@H]3[C@@H](CCC4=CC(=O)CC[C@@]43C)[C@@H]1CC[C@@H]2O [Testosterone] | 99.5 |
| Cc1ccc(/C(=C\CN2CCCC2)c2ccccn2)cc1 [Triprolidine] | 93.7 |
